{"sequences": {"note": "The chains behind the UniProt entries cited, without tags or fusion partners.", "UniProt A0AC58HE68": "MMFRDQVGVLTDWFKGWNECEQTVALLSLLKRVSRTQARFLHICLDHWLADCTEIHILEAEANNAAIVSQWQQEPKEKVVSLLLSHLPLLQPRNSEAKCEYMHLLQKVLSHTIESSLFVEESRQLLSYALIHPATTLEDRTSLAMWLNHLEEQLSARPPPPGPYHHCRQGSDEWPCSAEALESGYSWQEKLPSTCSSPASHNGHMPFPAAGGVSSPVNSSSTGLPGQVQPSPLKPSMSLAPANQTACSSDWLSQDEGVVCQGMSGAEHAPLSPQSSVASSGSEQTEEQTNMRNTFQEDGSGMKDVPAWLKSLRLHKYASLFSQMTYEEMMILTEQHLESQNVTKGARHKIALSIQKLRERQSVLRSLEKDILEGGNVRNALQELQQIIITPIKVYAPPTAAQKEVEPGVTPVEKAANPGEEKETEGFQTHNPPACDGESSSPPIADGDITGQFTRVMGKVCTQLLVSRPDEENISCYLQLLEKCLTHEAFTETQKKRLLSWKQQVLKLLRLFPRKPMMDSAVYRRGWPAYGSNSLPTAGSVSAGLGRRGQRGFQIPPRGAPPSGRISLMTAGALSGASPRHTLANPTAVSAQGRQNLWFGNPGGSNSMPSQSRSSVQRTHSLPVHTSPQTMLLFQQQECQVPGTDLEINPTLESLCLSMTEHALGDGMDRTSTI"}, "source": "paper PMC6219760", "biological_target": "T1, Buc-GFP (Bucky ball fused to eGFP), from transgenic zebrafish (zebrafish) (UniProt H0WFA5)", "T1 sequence": "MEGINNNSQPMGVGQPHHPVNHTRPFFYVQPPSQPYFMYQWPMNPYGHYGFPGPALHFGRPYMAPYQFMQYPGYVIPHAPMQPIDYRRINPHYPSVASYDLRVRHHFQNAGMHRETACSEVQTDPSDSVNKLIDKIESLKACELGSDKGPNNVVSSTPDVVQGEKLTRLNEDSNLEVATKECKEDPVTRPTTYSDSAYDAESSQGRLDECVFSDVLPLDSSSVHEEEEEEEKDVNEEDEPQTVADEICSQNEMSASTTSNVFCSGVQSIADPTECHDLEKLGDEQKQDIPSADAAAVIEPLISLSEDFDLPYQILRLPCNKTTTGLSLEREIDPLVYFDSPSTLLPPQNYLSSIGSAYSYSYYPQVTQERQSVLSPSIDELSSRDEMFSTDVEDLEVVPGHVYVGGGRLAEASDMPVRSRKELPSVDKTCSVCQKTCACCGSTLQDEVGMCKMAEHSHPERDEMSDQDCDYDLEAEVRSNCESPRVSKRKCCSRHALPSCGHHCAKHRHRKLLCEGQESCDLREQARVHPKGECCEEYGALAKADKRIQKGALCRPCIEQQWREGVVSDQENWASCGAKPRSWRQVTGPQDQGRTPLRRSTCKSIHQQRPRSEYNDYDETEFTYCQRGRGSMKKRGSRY", "experiment": "affinity purification with mass spectrometry; Buc-GFP held on GFP-Trap magnetic beads from extracts of Buc-GFP transgenic zebrafish embryos; GFP-control samples; lysis buffer 10 mM Tris pH 7.5, 150 mM NaCl, 0.5 mM EDTA, 0.5% NP-40", "note": "No constants are given. Whether binding was seen depends on the method and setting. In cells and extracts the contact can be indirect. These calls come from enrichment with a bait or labelling near it, and not all partners need be listed. A no says only that the protein was not detected with the bait. Tags and fused reporters may be left off the sequences shown.", "data": [{"substance": "MACF1, endogenous in zebrafish embryos", "values": [{"measurement": "binding", "result": "binds"}]}, {"substance": "Smaug homolog (Samd4b), endogenous in zebrafish embryos (from UniProt A0AC58HE68 1-674)", "values": [{"measurement": "binding", "result": "no binding"}]}]}
